Source: PubChem BioAssay AID720703 (Peter MacCallum Cancer Centre, 2013)
Screen: 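Find kinases that boost or dampen angiotensin II-triggered EGFR transactivation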 (primary screen). System: immortalised, SV40-transformed mammary epithelial cells from human, with stable expression of tagged AT1R. Knock-down reagent: siRNA pool against human genes, 40 nM siRNA pool per well. Time to read-out: 72 h from transfection to lysis and read-out. Treatment: angiotensin II stimulation (dose and duration not given); EGFR inhibitor AG1478 also listed. Read-out: 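ERK1/2 phosphorylation corrected for confluency, given as a robust z-score, mean over two replicate plates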. Scale: phospho-ERK z-score: higher = more ERK phosphorylation after angiotensin II, relative to plate. Rule for the call: 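Pools were ordered by robust z-score and 50 top-ranked pools, whether they raised or lowered the signal, were chosen for secondary testing; no numeric threshold was reported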. Meaning of the calls: active = picked for secondary screen; inactive = not picked.
Here is one part, drawn at random, of 714 reagents tested. 50 of all reagents (7%) were called active. 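Chosen pools sit at both extremes, so both low and high scores count as candidates; some pools appear more than once.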 Reagent sequences are not shown.

no.	Target gene	phospho-ERK z-score, replicate mean	call
1	LATS2	-0.01	inactive
2	PRAG1	1.3	inactive
3	STK38L	-0.8	inactive
4	NRBP2	0.55	inactive
5	DAPK2	0.77	inactive
6	NEK6	0.76	inactive
7	PIP5K1C	-0.62	inactive
8	CSNK2B	3.42	active
9	RPS6KB1	1.16	inactive
10	SNRK	4.4	active
11	MAST4	0.18	inactive
12	CDK5R1	-1.5	active
13	TTK	1.69	inactive
14	PBK	-0.22	inactive
15	IRAK3	-0.88	inactive
16	ALPK1	0.59	inactive
17	CSK	0.46	inactive
18	DGKB	0.08	inactive
19	AURKC	0.66	inactive
20	RPS6KA1	-0.4	inactive
21	TSSK2	0.49	inactive
22	SRC	-0.95	inactive
23	STK36	0.57	inactive
24	SPHK1	-0.9	inactive
25	PTK2	2.07	inactive
26	ITPKB	0.16	inactive
27	PRPS1L1	0.9	inactive
28	ADK	-0.16	inactive
29	FGFR1	-0.22	inactive
30	IPMK	1.12	inactive
31	STK10	-0.54	inactive
32	EPHA4	0.14	inactive
33	GAK	0.14	inactive
34	ROCK2	0.23	inactive
35	MAPK14	-0.11	inactive
36	MAP3K9	1.38	inactive
37	MAP3K12	-0.7	inactive
38	PIK3C2A	1.68	inactive
39	KALRN	0.8	inactive
40	EFNB3	-0.07	inactive
41	COMMD3	0.54	inactive
42	DLG1	-1.02	active
43	PRKDC	0.44	inactive
44	ERBB3	-0.34	inactive
45	LRRK2	-0.48	inactive
46	PGK2	0.1	inactive
47	BMX	-1.23	active
48	ALK	-0.54	inactive
49	HUS1	0.82	inactive
50	NUCKS1	0.43	inactive
51	DAPK1	-0.71	inactive
52	TNK2	0.34	inactive
53	MAPK15	-0.41	inactive
54	TNIK	-0.3	inactive
55	PLK3	-1.32	active
56	LCK	-0.38	inactive
57	CLK3	-0.02	inactive
58	MAP3K7	0.96	inactive
59	EIF2AK1	-0.08	inactive
60	TGFBR2	-0.1	inactive
61	FGR	-0.2	inactive
62	PNKP	-0.1	inactive
63	PKN1	-0.75	inactive
64	PIK3R3	-0.07	inactive
65	RFK	0.84	inactive
66	EPHA1	0.57	inactive
67	PASK	-0.07	inactive
68	NUAK1	-0.73	inactive
69	IRAK4	-0.05	inactive
70	ACVR1B	-0.74	inactive
71	PINK1	-0.3	inactive
72	PKDCC	-0.03	inactive
73	IP6K2	2.11	inactive
74	PAK4	0.1	inactive
75	SIK3	0.87	inactive

11 of these entries in another layout.
{"Target gene": "DLG1", "phospho-ERK z-score, replicate mean": -1.02, "call": "active"}
{"Target gene": "PRKDC", "phospho-ERK z-score, replicate mean": 0.44, "call": "inactive"}
{"Target gene": "ERBB3", "phospho-ERK z-score, replicate mean": -0.34, "call": "inactive"}
{"Target gene": "LRRK2", "phospho-ERK z-score, replicate mean": -0.48, "call": "inactive"}
{"Target gene": "PGK2", "phospho-ERK z-score, replicate mean": 0.1, "call": "inactive"}
{"Target gene": "BMX", "phospho-ERK z-score, replicate mean": -1.23, "call": "active"}
{"Target gene": "ALK", "phospho-ERK z-score, replicate mean": -0.54, "call": "inactive"}
{"Target gene": "HUS1", "phospho-ERK z-score, replicate mean": 0.82, "call": "inactive"}
{"Target gene": "NUCKS1", "phospho-ERK z-score, replicate mean": 0.43, "call": "inactive"}
{"Target gene": "DAPK1", "phospho-ERK z-score, replicate mean": -0.71, "call": "inactive"}
{"Target gene": "TNK2", "phospho-ERK z-score, replicate mean": 0.34, "call": "inactive"}
